No constants are given. Whether binding was seen depends on the method and setting. Binding seen in cells or lysates may run through a third protein.
Target: ΔKRAB-ZNF274 (ZNF274 with the two KRAB domains deleted) (human) (UniProt Q96GC6)
Test: co-IP; HEK293T cells cotransfected with HA- and Flag-tagged ZNF274 constructs, 24 h with doxycycline; lysis in IP buffer (0.5% NP-40, 500 mM Tris pH 7.4, 20 mM EDTA); anti-Flag Sepharose or anti-HA magnetic beads overnight at 4°C; immunoblot for HA, Flag and KAP1

Amino acid sequences for entries named in this document (tags omitted). A change or cut given only in a name is not applied to a line headed by its entry.
UniProt Q96GC6: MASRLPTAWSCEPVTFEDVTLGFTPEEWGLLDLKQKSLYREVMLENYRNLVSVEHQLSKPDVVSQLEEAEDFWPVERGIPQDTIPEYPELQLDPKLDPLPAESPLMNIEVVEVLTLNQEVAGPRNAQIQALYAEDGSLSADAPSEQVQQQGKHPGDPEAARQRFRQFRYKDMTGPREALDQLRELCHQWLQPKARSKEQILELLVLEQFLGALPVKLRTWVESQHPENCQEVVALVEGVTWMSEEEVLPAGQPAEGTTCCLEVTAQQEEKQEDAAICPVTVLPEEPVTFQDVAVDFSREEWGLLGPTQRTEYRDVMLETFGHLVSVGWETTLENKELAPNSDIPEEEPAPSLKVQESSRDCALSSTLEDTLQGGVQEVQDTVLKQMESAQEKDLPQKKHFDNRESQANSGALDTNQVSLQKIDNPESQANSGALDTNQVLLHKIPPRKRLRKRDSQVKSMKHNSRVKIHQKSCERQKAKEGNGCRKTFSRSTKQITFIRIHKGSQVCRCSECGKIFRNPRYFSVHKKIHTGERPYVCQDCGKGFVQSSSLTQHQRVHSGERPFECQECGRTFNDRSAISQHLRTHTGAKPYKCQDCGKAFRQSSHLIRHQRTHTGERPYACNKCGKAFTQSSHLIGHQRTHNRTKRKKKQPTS
UniProt Q13263: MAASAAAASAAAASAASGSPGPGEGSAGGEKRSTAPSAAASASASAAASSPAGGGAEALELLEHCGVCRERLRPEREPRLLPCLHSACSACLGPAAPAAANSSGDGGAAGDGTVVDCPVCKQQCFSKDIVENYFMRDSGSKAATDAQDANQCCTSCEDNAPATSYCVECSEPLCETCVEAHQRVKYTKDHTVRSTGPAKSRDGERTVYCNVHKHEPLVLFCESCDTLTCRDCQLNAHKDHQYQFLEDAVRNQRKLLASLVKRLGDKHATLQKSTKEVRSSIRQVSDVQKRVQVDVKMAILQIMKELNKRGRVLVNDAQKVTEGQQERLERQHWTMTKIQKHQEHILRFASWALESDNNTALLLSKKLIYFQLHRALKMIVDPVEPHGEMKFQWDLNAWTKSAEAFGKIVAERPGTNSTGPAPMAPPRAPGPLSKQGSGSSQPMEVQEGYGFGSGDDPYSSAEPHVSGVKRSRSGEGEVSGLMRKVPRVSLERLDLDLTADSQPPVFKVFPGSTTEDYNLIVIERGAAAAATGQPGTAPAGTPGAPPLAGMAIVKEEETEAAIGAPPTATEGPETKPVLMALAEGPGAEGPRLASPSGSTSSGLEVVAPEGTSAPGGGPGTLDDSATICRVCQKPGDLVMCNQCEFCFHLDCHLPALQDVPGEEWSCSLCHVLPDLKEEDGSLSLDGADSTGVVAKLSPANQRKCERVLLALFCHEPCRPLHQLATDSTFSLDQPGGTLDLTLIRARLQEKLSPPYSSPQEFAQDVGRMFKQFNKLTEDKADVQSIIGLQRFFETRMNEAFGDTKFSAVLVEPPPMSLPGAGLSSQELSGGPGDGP

- binding: no binding
Substance: KAP1/TRIM28 (from UniProt Q13263 1-835)

Source: article PMC11397430
